The reference is the same well before dosing, and untreated signal decays as well.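 Fibroblast labels denote human fibroblasts, mainly primary ones from uterus (C12385, HUF), lung (H6013), bone (Hs27A), adrenal (HADF) and skin (WS1), plus mammary HMF and breast cancer-associated Hs343T. Cancer cells are basal-like or mesenchymal-like triple-negative breast cancer lines. A hit is a response shift exceeding 3x replicate standard deviation. The tissue of the other fibroblasts is not given here.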
System: HCC1143
Assay: relative JC-1 red fluorescence (viability) vs pre-drug, coculture with fibroblast (fraction); higher = more viable cancer cells
Procedure: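 JC-1 labelled TNBC cells cocultured 1:1 (1,500 cells each) with CellTrace Violet stained primary or stromal fibroblasts in 384-well plates in FluoroBrite medium, treated with one of 42 anticancer drugs at 0.1, 1, 10 or 100 uM. JC-1 red fluorescence (mitochondrial integrity in cancer cells only) was read by plate reader every 8 h for 72 h. Values are normalised to each well's pre-drug value. The stock of one drug was tenfold lower, so its dose labels may be too high.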

COc1cc([C@@H]2c3cc4c(cc3[C@@H](O[C@@H]3O[C@@H]5CO[C@@H](C)O[C@H]5[C@H](O)[C@H]3O)[C@H]3COC(=O)[C@H]23)OCO4)cc(OC)c1O [Etoposide]
relative JC-1 red fluorescence
Settings | 8 h | 16 h | 24 h | 32 h | 40 h | 48 h | 56 h | 64 h | 72 h
0.1 µM, coculture fibroblast: C12385 | 0.817 | 0.74 | 0.671 | 0.598 | 0.539 | 0.508 | 0.48 | 0.446 | 0.437
0.1 µM, coculture fibroblast: H6013 | 0.723 | 0.627 | 0.591 | 0.5651 | 0.50455 | 0.5048 | 0.474 | 0.4586 | 0.423
0.1 µM, coculture fibroblast: H6019 | 0.827 | 0.772 | 0.726 | 0.675 | 0.636 | 0.602 | 0.5507 | 0.50343 | 0.468
0.1 µM, coculture fibroblast: H6076 | 0.771 | 0.801 | 0.7412 | 0.6656 | 0.634 | 0.606 | 0.57 | 0.543 | 0.542
0.1 µM, coculture fibroblast: H6231 | 0.82 | 0.798 | 0.741 | 0.6408 | 0.639 | 0.606 | 0.564 | 0.53 | 0.51
0.1 µM, coculture fibroblast: HADF | 0.727 | 0.674 | 0.649 | 0.65 | 0.578 | 0.573 | 0.539 | 0.518 | 0.484
0.1 µM, coculture fibroblast: HCFa | 0.7084 | 0.633 | 0.589 | 0.556 | 0.47 | 0.453 | 0.4091 | 0.381 | 0.357
0.1 µM, coculture fibroblast: HCPF | 0.788 | 0.767 | 0.7152 | 0.653 | 0.6101 | 0.59 | 0.561 | 0.529 | 0.5242
0.1 µM, coculture fibroblast: HHSteC | 0.802 | 0.749 | 0.719 | 0.687 | 0.613 | 0.583 | 0.537 | 0.511 | 0.474
0.1 µM, coculture fibroblast: HMF | 0.79 | 0.872 | 0.789 | 0.657 | 0.676 | 0.641 | 0.585 | 0.551 | 0.518
0.1 µM, coculture fibroblast: HPFa | 0.9079 | 0.814 | 0.765 | 0.664 | 0.619 | 0.573 | 0.515 | 0.469 | 0.432
0.1 µM, coculture fibroblast: HUF | 0.863 | 0.789 | 0.745 | 0.68 | 0.628 | 0.608 | 0.568 | 0.543 | 0.513
0.1 µM, coculture fibroblast: Hs5 | 0.844 | 0.876 | 0.817 | 0.76886 | 0.715 | 0.67 | 0.6414 | 0.612 | 0.61
0.1 µM, coculture fibroblast: Hs27A | 0.699 | 0.638 | 0.62 | 0.634 | 0.525 | 0.528 | 0.484 | 0.457 | 0.413
0.1 µM, coculture fibroblast: Hs343T | 0.804 | 0.851 | 0.778 | 0.663 | 0.6455 | 0.601 | 0.55204 | 0.5269 | 0.495
0.1 µM, coculture fibroblast: WS1 | 0.804 | 0.726 | 0.675 | 0.598 | 0.548 | 0.507 | 0.468 | 0.448 | 0.431
1 µM, coculture fibroblast: C12385 | 0.8343 | 0.746 | 0.6852 | 0.619 | 0.552 | 0.505 | 0.4714 | 0.437 | 0.423
1 µM, coculture fibroblast: H6013 | 0.717 | 0.648 | 0.607 | 0.588 | 0.518 | 0.508 | 0.472 | 0.461 | 0.4254
1 µM, coculture fibroblast: H6019 | 0.814 | 0.756 | 0.708 | 0.642 | 0.601 | 0.57 | 0.518 | 0.466 | 0.44
1 µM, coculture fibroblast: H6076 | 0.78 | 0.775 | 0.735 | 0.669 | 0.63 | 0.601 | 0.568 | 0.538 | 0.528
1 µM, coculture fibroblast: H6231 | 0.79 | 0.768 | 0.6996 | 0.604 | 0.601 | 0.563 | 0.524 | 0.486 | 0.458
1 µM, coculture fibroblast: HADF | 0.7402 | 0.691 | 0.663 | 0.656 | 0.5761 | 0.562 | 0.526 | 0.501 | 0.456
1 µM, coculture fibroblast: HCFa | 0.73845 | 0.666 | 0.624 | 0.596 | 0.515 | 0.489 | 0.449 | 0.422 | 0.384
1 µM, coculture fibroblast: HCPF | 0.7884 | 0.8 | 0.747 | 0.623 | 0.655 | 0.616 | 0.573 | 0.538 | 0.513
1 µM, coculture fibroblast: HHSteC | 0.833 | 0.767 | 0.737 | 0.705 | 0.634 | 0.618 | 0.573 | 0.539 | 0.484
1 µM, coculture fibroblast: HMF | 0.786 | 0.773 | 0.721 | 0.68 | 0.635 | 0.616 | 0.577 | 0.553 | 0.542
1 µM, coculture fibroblast: HPFa | 0.912 | 0.826 | 0.799 | 0.705 | 0.636 | 0.599 | 0.53 | 0.476 | 0.442
1 µM, coculture fibroblast: HUF | 0.8427 | 0.742 | 0.677 | 0.5929 | 0.5366 | 0.5007 | 0.445 | 0.404 | 0.375
1 µM, coculture fibroblast: Hs5 | 0.863 | 0.876 | 0.853 | 0.804 | 0.766 | 0.7358 | 0.7067 | 0.688 | 0.672
1 µM, coculture fibroblast: Hs27A | 0.714 | 0.63 | 0.602 | 0.616 | 0.5185 | 0.53 | 0.491 | 0.472 | 0.405
1 µM, coculture fibroblast: Hs343T | 0.788 | 0.802 | 0.749 | 0.664 | 0.65 | 0.608 | 0.543 | 0.514 | 0.477
1 µM, coculture fibroblast: WS1 | 0.842 | 0.7673 | 0.729 | 0.663 | 0.611 | 0.579 | 0.544 | 0.514 | 0.486

Source: the supplement of paper PMC6078165
